Test results: paper doi:10.1101/2022.05.04.490607 (bioRxiv, 2022)
Results are given in words; binding and its absence hold for the method and conditions named. Binding seen in cells or lysates may run through a third protein. Some binding calls cover weakened binding; strength is not graded here. For some assays here: Where a sequence is shown, tags or fusion partners need not be part of it.

By UniProt entry, the sequences of proteins in these tests, tags left out.
UniProt P62258: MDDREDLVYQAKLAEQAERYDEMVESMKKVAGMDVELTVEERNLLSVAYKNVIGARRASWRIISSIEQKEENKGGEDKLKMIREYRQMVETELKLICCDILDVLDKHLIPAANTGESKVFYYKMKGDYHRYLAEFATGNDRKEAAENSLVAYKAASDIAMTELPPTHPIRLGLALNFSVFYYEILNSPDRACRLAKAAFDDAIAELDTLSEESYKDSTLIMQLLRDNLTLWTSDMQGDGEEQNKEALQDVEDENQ
UniProt P15056: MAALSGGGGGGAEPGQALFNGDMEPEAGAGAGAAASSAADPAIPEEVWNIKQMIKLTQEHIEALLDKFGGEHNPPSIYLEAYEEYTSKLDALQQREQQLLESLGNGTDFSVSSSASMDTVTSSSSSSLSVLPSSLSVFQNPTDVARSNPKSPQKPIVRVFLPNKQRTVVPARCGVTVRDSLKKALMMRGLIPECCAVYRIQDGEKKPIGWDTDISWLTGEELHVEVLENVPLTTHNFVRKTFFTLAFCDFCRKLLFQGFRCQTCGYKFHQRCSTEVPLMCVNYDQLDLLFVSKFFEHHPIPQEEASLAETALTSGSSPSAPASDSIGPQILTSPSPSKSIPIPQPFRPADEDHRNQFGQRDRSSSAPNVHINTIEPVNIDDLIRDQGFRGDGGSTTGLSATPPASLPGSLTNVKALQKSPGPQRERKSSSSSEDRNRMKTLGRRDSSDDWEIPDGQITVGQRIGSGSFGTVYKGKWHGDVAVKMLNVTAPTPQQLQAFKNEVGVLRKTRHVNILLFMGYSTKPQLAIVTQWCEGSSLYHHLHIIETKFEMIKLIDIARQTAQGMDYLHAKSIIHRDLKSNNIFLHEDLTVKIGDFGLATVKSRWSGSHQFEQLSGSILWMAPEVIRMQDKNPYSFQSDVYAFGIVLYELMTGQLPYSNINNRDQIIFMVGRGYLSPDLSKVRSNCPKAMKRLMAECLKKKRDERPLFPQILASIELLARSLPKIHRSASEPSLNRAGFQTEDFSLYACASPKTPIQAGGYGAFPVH

Legend:
[1] = target: RAF1 (full-length human RAF1 with C-terminal StrepTagII) (human) (UniProt P04049); assay: pull-down
[2] = target: T1, CDC37 I23E (C-terminal StrepTagII) (human) (UniProt Q16543); assay: pull-down
T1 sequence: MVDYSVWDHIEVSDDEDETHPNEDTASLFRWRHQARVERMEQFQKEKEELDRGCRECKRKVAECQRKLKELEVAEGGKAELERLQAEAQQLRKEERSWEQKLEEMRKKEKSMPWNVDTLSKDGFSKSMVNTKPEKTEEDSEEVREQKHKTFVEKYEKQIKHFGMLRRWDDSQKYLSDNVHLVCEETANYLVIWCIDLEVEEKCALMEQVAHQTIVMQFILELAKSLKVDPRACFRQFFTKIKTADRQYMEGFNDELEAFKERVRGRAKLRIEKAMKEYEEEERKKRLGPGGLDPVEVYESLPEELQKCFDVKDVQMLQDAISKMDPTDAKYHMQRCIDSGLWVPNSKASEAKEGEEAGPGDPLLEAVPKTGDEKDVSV

| binding [1] | binding [2] | Substance |
| --- | --- | --- |
| binds | – | 14-3-3ε (endogenous) (from UniProt P62258 1-255) |
| – | no binding | B-RAF (endogenous) (from UniProt P15056 1-766) |
